Literature values in patent US6562802B2, “Medical composition and uses thereof” (Noviscens AB, priority 1996, dated 2003).
Some of these results come from one statement about several compounds together. For at least one compound, name, drawing or mass did not settle the structure.

System: mice, rats and rabbits
Conditions: cited from earlier work

## O=C(O)CN(CCN(CC(=O)O)CC(=O)O)CCN(CC(=O)O)CC(=O)O [DTPA, diethylenediaminepentaacetic acid]
  acute and subacute toxicities: less than 6 g/kg
